Measured values published in patent US11357857B2, “Excipient compounds for protein processing” (COMERA LIFE SCIENCES, INC., priority 2014, dated 2022).
Several values for one entry are separate records, joined by “and”; a condition that tells them apart may be missing. Equal entries are not always repeated. Residues, ends and D or L forms follow the SMILES beside them.

What was measured:
tocilizumab [1] = assay: Protein-A spin plate elution with excipient buffers, one elution wash, SEC peak area (Example 29); conditions: 20 mM citrate pH 2.6, excipient about 100 mM (Table 26)
omalizumab [2] = assay: as above; conditions: 20 mM citrate pH 2.6, excipient about 100 mM (Table 26)
ustekinumab = assay: as above; conditions: for Integrated peak area: 20 mM citrate pH 2.6, excipient about 100 mM (Table 26)
ipilimumab [3] = assay: as above; conditions: 20 mM citrate pH 2.6, excipient about 100 mM (Table 26)
ipilimumab [4] = assay: Protein-A spin plate elution with excipient buffers, two elution washes, SEC peak area (Example 28); conditions: elution buffer 20 mM citrate pH 2.6, excipient about 100 mM (Table 21)
omalizumab [5] = assay: as above; conditions: elution buffer 20 mM citrate pH 2.6, excipient about 100 mM (Table 21)
tocilizumab [6] = assay: as above; conditions: elution buffer 20 mM citrate pH 2.6, excipient about 100 mM (Table 21)
[7] = test system: bovine gamma globulin (BGG); assay: TFF concentration of BGG for […], protein concentration by Bradford assay (Example 26); conditions: 15 mg/mL caffeine
[8] = test system: bovine gamma globulin (BGG); assay: Tangential flow filtration (TFF) of BGG, mass transfer coefficient (Example 25); conditions: 15 mg/mL caffeine

| SMILES | Integrated peak area (tocilizumab [1]) | Integrated peak area (omalizumab [2]) | Integrated peak area (ustekinumab) | Peak area (ipilimumab [3]) | Peak area (ipilimumab [4]) | also measured |
| --- | --- | --- | --- | --- | --- | --- |
| O=S(=O)(O)c1ccc(O)cc1 [4-hydroxybenzene sulfonic acid] | 4539 mAU * min | 3190 mAU * min | 4132 mAU * min | 5836 mAU * min | – | – |
| OC[C@H]1O[C@@](CO)(O[C@H]2O[C@H](CO)[C@@H](O)[C@H](O)[C@H]2O)[C@@H](O)[C@@H]1O [sucrose, reference compound] | – | – | – | – | 4585 mAU*min | Peak area normalized to salt-free control (omalizumab [5]): 95.0%; Peak area normalized to salt-free control (tocilizumab [6]): 37.0% |
| OC[C@H]1O[C@H](O[C@H]2O[C@H](CO)[C@@H](O)[C@H](O)[C@H]2O)[C@H](O)[C@@H](O)[C@@H]1O [trehalose, reference compound] | – | – | – | – | 3667 mAU*min | – |
| Cn1c(=O)c2c(ncn2C)n(C)c1=O [Caffeine] | 5656 mAU * min | 5807 mAU * min | 5084 mAU * min | 6051 mAU * min | – | Increase of final protein concentration vs control [7]: approximately 42%; Peak area normalized to salt control (ustekinumab; excipient about 100 mM (Table 26)): 120.0%; Increase of mass transfer coefficient vs control [8]: ~13%; Mass Transfer Coefficient kc ([8]; 150 mM NaCl, 20 mM histidine pH 6, best fit): 25.4 LMH and 25.4 ± 0.1 LMH |
| CC1=CC(=O)NS(=O)(=O)O1 [Acesulfame K, acesulfame potassium] | – | – | – | – | 1567 mAU*min | – |
| NCCS(=O)(=O)O [taurine] | 5396 mAU * min | 4676 mAU * min | – | 7557 mAU * min | 3958 mAU*min | Peak area normalized to salt control (ipilimumab [4]): 97.0% |
| c1c[nH]cn1 [Imidazole] | 4754 mAU * min | 2589 mAU * min | 4617 mAU * min | 6071 mAU * min | – | – |
| COC(=O)[C@H](Cc1ccccc1)NC(=O)[C@@H](N)CC(=O)O [Aspartame] (H-Asp-Phe-OMe) | – | – | – | – | 4012 mAU*min | – |
| CN1CCCC1=O [N-Methyl-2-pyrrolidone] | – | – | – | – | 386 mAU*min | Peak area normalized to salt control (ipilimumab [4]): 9.5%; Peak area normalized to salt-free control (ipilimumab [4]): 8.8%; Peak area normalized to salt control (omalizumab [5]): 97.0%; Peak area normalized to salt-free control (omalizumab [5]): 87.0%; Peak area normalized to salt control (tocilizumab [6]): 8.4%; Peak area normalized to salt-free control (tocilizumab [6]): 9.3% |
| NC(=O)c1cccnc1 [Niacinamide] | 5225 mAU * min | 5748 mAU * min | 5848 mAU * min | 6300 mAU * min | 4295 mAU*min | Peak area normalized to salt control (tocilizumab [6]): 82.0% |
